# Experimental data reported in PubChem BioAssay AID624297 (National Center for Advancing Translational Sciences (NCATS), 2012).
# The campaign covered roughly 340,000 compounds. About 6,200 (1.8%) were called active. The shares of active, inactive and inconclusive entries below differ from those in the screen. Calls follow the shape of the dose curve; as a rule, active = well fitted activation curve with a large enough effect; inconclusive = small, poorly fitted or top-dose-only effect; inactive = no such curve, though single readings can be large or run the other way. Potencies beside an inconclusive call are fits to weak or partial responses and may not hold up.
# Experiment: A quantitative high throughput screen for small molecules that induce DNA re-replication in SW480 colon adenocarcinoma cells. Also: nearly all actives have a fitted effect of over 55% in size. As to re-replication activation: % of control where 0% means no effect.
# Conditions: Hoechst DNA content imaging, 48 h; re-replication activation: at 46.1 µM (top of the series) unless noted
# Method in brief: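 Compounds, transferred as 23 nL by pin tool, were incubated with cells for 48 hr; DNA content per nucleus was then quantified by Hoechst staining and fluorescence plate imaging.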
# Potency is read from the fitted curve at half-maximal effect.
Compound,re-replication activation,Potency
Cc1ccc2[nH]c(=O)c(CN(Cc3nnnn3Cc3ccccc3)C3CCCC3)cc2c1,inactive: 2.13%,–
S=C1SCN(CC2CC2)CN1CC1CC1,–,active: 5.8 µM
Cc1cccc(OCC(=O)N(Cc2ccco2)C2CCS(=O)(=O)C2)c1C (centres undefined),inactive: -11.6%,–
C=C1[C@@H](O)[C@@H]2O[C@]3(CC[C@H](/C=C/[C@@H](C)[C@@H]4CC(C)=CC5(O[C@H](C[C@@](C)(O)C(=O)OC)CC[C@H]5O)O4)O3)CC[C@H]2O[C@@H]1[C@@H](O)C[C@H](C)[C@H]1OC2(CCCCO2)CC[C@H]1C (some centres undefined),–,"inconclusive: 25.9 µM [activator, partial curve, poor fit]"
CC1(C)CC(=O)C2=C(C1)c1c(ccc3ccccc13)NC2c1ccco1 (centres undefined),–,"inconclusive: 20.6 µM [activator, single point]"
O=C(c1ccco1)N1CCN(S(=O)(=O)c2ccc(S(=O)(=O)NC3CCCC3)cc2)CC1,–,"inconclusive: 29.1 µM [activator, single point]"
C=CC[n+]1c(/C=C2\C=Cc3cc(C)ccc3N2CC)ccc2ccccc21,inactive: -161%,–
Cc1cn(C2CCCCO2)c(=O)[nH]c1=O (centres undefined),inactive: 1.21%,–
O=C(Cn1ncc2c([nH]c3ccccc32)c1=O)N1CCc2ccccc2C1,–,"inconclusive: 29.1 µM [activator, single point]"
O=C(COc1ccccc1C(=O)c1cnn(-c2ccccc2)c1)Nc1ccc2ccccc2c1,–,"inconclusive: 25.9 µM [activator, partial curve, poor fit]"
CCN1CCc2nc(NC(=O)c3ccc(S(=O)(=O)N(C)C)cc3)sc2C1,inactive: -7.6%,–
c1cncc(CNc2nc(N3CCOCC3)nc(N3CCOCC3)n2)c1,–,"inconclusive: 29.1 µM [activator, partial curve, poor fit]"
NC(=O)c1nsc(C(=O)N(c2ccccc2)C(C(=O)NC2CCCC2)c2ccncc2)c1N (centres undefined),–,"inconclusive: 29.1 µM [activator, single point]"
CCc1c(C)nc2ncnn2c1N1CCCC(C(=O)NCc2ccco2)C1 (centres undefined),inactive: -11.9%,–
CCN(CC)Cc1ccc(NC(=O)c2sc3cc(Cl)ccc3c2Cl)cc1,–,"inconclusive: 29.1 µM [activator, single point]"
CCc1ccccc1NC(=O)c1ccc(Cn2cc([N+](=O)[O-])cn2)cc1,–,active: 1.03 µM
COC(=O)/C(=C\Nc1ccccc1)NC(=O)c1ccc(Cl)cc1Cl,–,"inconclusive: 16.4 µM [activator, single point]"
CCOc1cc2c(cc1/C=C1/NC(=O)N(CC(=O)OC)C1=O)OCO2,–,"inconclusive: 29.1 µM [activator, single point]"
Cc1ccc(C)n1-c1cccc(NC(=O)c2ccccc2)c1,–,"inconclusive: 16.4 µM [activator, single point]"
O=C(Nc1cccc(-c2cccc(Cl)c2)c1)C1CCN(Cc2ccc(CO)o2)CC1,–,"inconclusive: 29.1 µM [activator, single point]"
CC(C)CN1C(=O)c2ccc(C(=O)Nc3ccccc3C(=O)O)cc2C1=O,inactive: 9.44%,–
O=C(NCCS(=O)(=O)N1CCN(c2ccccc2F)CC1)c1cccs1,inactive: 4.74%,–

# A portion from the list above:
Compound,re-replication activation,Potency
Cc1ccc2[nH]c(=O)c(CN(Cc3nnnn3Cc3ccccc3)C3CCCC3)cc2c1,inactive: 2.13%,–
S=C1SCN(CC2CC2)CN1CC1CC1,–,active: 5.8 µM
Cc1cccc(OCC(=O)N(Cc2ccco2)C2CCS(=O)(=O)C2)c1C (centres undefined),inactive: -11.6%,–
C=C1[C@@H](O)[C@@H]2O[C@]3(CC[C@H](/C=C/[C@@H](C)[C@@H]4CC(C)=CC5(O[C@H](C[C@@](C)(O)C(=O)OC)CC[C@H]5O)O4)O3)CC[C@H]2O[C@@H]1[C@@H](O)C[C@H](C)[C@H]1OC2(CCCCO2)CC[C@H]1C (some centres undefined),–,"inconclusive: 25.9 µM [activator, partial curve, poor fit]"

# More compounds

Compound,re-replication activation,Potency
C/C(=N\NC(=O)c1ccc(CN2CCc3ccccc3C2)cc1)c1ccccc1O,–,active: 20.6 µM
NC(=O)CSc1nc2ccccc2n1-c1ccccc1,inactive: 3.9%,–
CC(C)N1CCN(S(=O)(=O)c2ccc3ccccc3c2)CC1,inactive: 4.17%,–
COc1ccc(OC)c(/C=C/C(=O)NCCc2nc3ccccc3[nH]2)c1,inactive: 1.46%,–
CCNC(=O)NC(=O)C(C)OC(=O)C(C)(C)Oc1ccc(Cl)cc1 (centres undefined),–,"inconclusive: 2.91 µM [activator, full curve, poor fit]"
CCS(=O)(=O)c1nc(S(=O)(=O)c2ccc(Cl)cc2)c(N2CCOCC2)s1,–,"inconclusive: 0.146 µM [activator, full curve, poor fit]"
CCN1C=C(Cc2ccccc2C)C2=C(C1)C(c1ccccc1C)C(C#N)=C(N)O2 (centres undefined),–,"inconclusive: 8.2 µM [activator, partial curve, poor fit]"
CC(=O)c1sc(N/N=C\c2ccc(Br)cc2)nc1C,–,"inconclusive: 25.9 µM [activator, partial curve, poor fit]"
COc1ccc(NC(=O)c2cccc(S(=O)(=O)NCc3ccco3)c2)c(OC)c1,inactive: -68.8%,–
O=C(Nc1ccc(Cl)cn1)c1cccnc1,–,"inconclusive: 29.1 µM [activator, single point]"
COC(=O)[C@@H]1[C@@H](C#N)C2(c3ccccc3-c3ccccc32)N(c2ccc(Cl)cc2)N1C#N,–,"inconclusive: 18.4 µM [activator, single point]"
COc1ccc(OCCN2C(=O)c3cccc(N)c3C2=O)cc1,–,"inconclusive: 4.61 µM [activator, partial curve]"
CCC(C)c1ccc(C2C3=C(Nc4nc(N)[nH]c(=O)c42)c2ccccc2C3=O)cc1 (centres undefined),–,"inconclusive: 25.9 µM [activator, single point]"
Cc1nn(-c2ccc(N3CCCCC3)nn2)c(C)c1CCC(=O)Nc1ccc(F)c(F)c1,–,"inconclusive: 29.1 µM [activator, single point]"
CCN(CC)C(=O)CSc1ncnc2c(-c3cccs3)nsc12,inactive: 0.884%,–
C[C@@H]1CC[C@]2(C(=O)O)CC[C@]3(C)C(=CCC4[C@]56CC[C@@](O)(OC5)C(C)(C)C6CC[C@]43C)C2[C@H]1C (some centres undefined),inactive: -38.7%,–
CCOC(=O)N1CCC(=NNC(=O)Cn2ccc(C(F)(F)F)n2)CC1,–,"inconclusive: 4.61 µM [activator, full curve, poor fit]"
CC(C)(C)OC(=O)NNC(=O)NC12CC3CC(CC(C3)C1)C2,–,"inconclusive: 0.0046 µM [activator, full curve, poor fit]"
COc1ccc(OCC(=O)Nc2cc(OC)ccc2N2CCCCC2)cc1,inactive: -4.45%,–
CN1C(=O)CCC(CCC(=O)O)(c2ccccc2O)C1=O (centres undefined),inactive: 1.68%,–
CC(C)c1[nH]nc2c1C(c1cccs1)C(C#N)=C(N)O2 (centres undefined),–,"inconclusive: 20.6 µM [activator, single point]"
S=c1nc(-c2cccc(Cl)c2)[nH][nH]1,inactive: -27.2%,–
